Source: PubChem BioAssay AID1259254 (NCATS, 2017)
Assay: 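Genome-wide screen for genes that prevent DNA re-replication in cancer cells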 (primary screen). Cell system: human HCT116 colorectal cancer cells. Reagents: single siRNA against human genes. Duration: 3 days. Measured: 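Nuclei stained with Hoechst and imaged; cell-cycle phase assigned by DNA content; G2 share scaled per plate, non-targeting siRNA 0%, GMNN siRNA 100%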. Reading the numbers: G2 robust z-score and G2 cells, % of GMNN control: higher = more G2 cells, more excess DNA replication. Hit rule: 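An siRNA counts as active if its G2 robust z-score lies at least 5 MADs above the screen median; here such calls match roughly 38% of GMNN control or more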.
This is an unselected part of about 59,000 reagents tested. Of all reagents, about 1,550 (2.6%) are marked active. 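G2 share is only a proxy for re-replication; each gene was hit by three separate siRNAs, and active genes were retested.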 The numbers tell different reagents against one gene apart. Not all columns of the deposit are shown. Not given: the amount of reagent.

For ARHGAP20 #1, the values are G2 robust z-score -0.361; G2 cells, % of GMNN control 0.429; inactive. With knock-down of ARHGAP20 #2, the screen gave G2 robust z-score -0.948; G2 cells, % of GMNN control -3.7; inactive. With knock-down of ARHGAP20 #3 the results were G2 robust z-score -1.08; G2 cells, % of GMNN control -4.63; inactive. Against OAS1 #1 the deposit lists G2 robust z-score 2.46; G2 cells, % of GMNN control 20.3; inactive. With knock-down of OAS1 #2 the results were G2 robust z-score 0.0199; G2 cells, % of GMNN control 3.11; inactive. Knock-down of OAS1 #3 came out at: G2 robust z-score 1.42; G2 cells, % of GMNN control 12.9; inactive.

Knock-down of ZNF23 #1 came out at: G2 robust z-score -0.171; G2 cells, % of GMNN control 1.77; inactive. ZNF23 #2 gave G2 robust z-score -0.414; G2 cells, % of GMNN control 0.0533; inactive. With knock-down of ZNF23 #3, the screen gave G2 robust z-score 0.426; G2 cells, % of GMNN control 5.96; inactive. Silencing of ZNF613 #1 gave: G2 robust z-score -0.408; G2 cells, % of GMNN control 0.0955; inactive. With knock-down of ZNF613 #2, the record shows G2 robust z-score -0.0668; G2 cells, % of GMNN control 2.5; inactive. With knock-down of ZNF613 #3, the record shows G2 robust z-score -0.355; G2 cells, % of GMNN control 0.469; inactive.

ZKSCAN7 #1 scored G2 robust z-score -0.582; G2 cells, % of GMNN control -1.13; inactive. ZKSCAN7 #2 gave G2 robust z-score -0.793; G2 cells, % of GMNN control -2.61; inactive. For ZKSCAN7 #3 the deposit lists G2 robust z-score 1.68; G2 cells, % of GMNN control 14.8; inactive.

4 entries from above, sorted by “G2 robust z-score”, ascending:
ZNF23 #1 → G2 robust z-score = -0.171; G2 cells, % of GMNN control = 1.77; call = inactive
OAS1 #2 → G2 robust z-score = 0.0199; G2 cells, % of GMNN control = 3.11; call = inactive
OAS1 #3 → G2 robust z-score = 1.42; G2 cells, % of GMNN control = 12.9; call = inactive
OAS1 #1 → G2 robust z-score = 2.46; G2 cells, % of GMNN control = 20.3; call = inactive

Continued.
For UGT2B4 #1, the entry reads G2 robust z-score -0.794; G2 cells, % of GMNN control -2.62; inactive. With knock-down of UGT2B4 #2 the results were G2 robust z-score 5.02; G2 cells, % of GMNN control 38.3; active. After knock-down of UGT2B4 #3 the results were G2 robust z-score 0.369; G2 cells, % of GMNN control 5.56; inactive. NRCAM #1 showed G2 robust z-score -1.02; G2 cells, % of GMNN control -4.24; inactive. Silencing of NRCAM #2 came out at: G2 robust z-score -0.00583; G2 cells, % of GMNN control 2.93; inactive. For NRCAM #3, the entry reads G2 robust z-score -0.544; G2 cells, % of GMNN control -0.859; inactive.

Knock-down of ELAPOR2 #1 resulted in: G2 robust z-score -0.109; G2 cells, % of GMNN control 2.2; inactive. ELAPOR2 #2 scored G2 robust z-score 1.38; G2 cells, % of GMNN control 12.7; inactive. After knock-down of ELAPOR2 #3 the results were G2 robust z-score -0.487; G2 cells, % of GMNN control -0.458; inactive. GTF2A1 #1 scored G2 robust z-score -0.852; G2 cells, % of GMNN control -3.02; inactive. GTF2A1 #2 showed G2 robust z-score -0.817; G2 cells, % of GMNN control -2.78; inactive. Depletion of GTF2A1 #3 resulted in: G2 robust z-score -0.0209; G2 cells, % of GMNN control 2.82; inactive.

TEAD2 #1 scored G2 robust z-score 0.29; G2 cells, % of GMNN control 5.01; inactive. Against TEAD2 #2, the entry reads G2 robust z-score 0.557; G2 cells, % of GMNN control 6.89; inactive. For TEAD2 #3 the deposit lists G2 robust z-score -0.361; G2 cells, % of GMNN control 0.425; inactive.
